# Measured values from PubChem BioAssay AID1347431 (National Center for Advancing Translational Sciences (NCATS), 2020).
# Screen size: about 1,200 compounds; fewer than 10 were called active. Calls follow the shape of the dose curve; as a rule, active = well fitted curve in the direction sought with a large enough effect; inconclusive = small, poorly fitted or top-dose-only effect, or another doubt; inactive = no such curve, though single readings can be large or run the other way. The list shows a part of the results.
# Test: Confirmatory qHTS assay for inhibitors of Activation Induced Cytidine Deaminase (AID): UDG signals; also: 0% is about no effect
# Details: UDG coupled enzyme activity counter-screen; at 115 µM (top of the series) unless noted
# How it was run: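 Fluorescence at 560 nm excitation/665 nm emission reports UDG activity, read after NaOH quench of a 4 h room-temperature reaction of DJC20/DJC23 substrates with AID (1 uM, 4/3x) and UDG (2 U/mL, 4/3x); compounds at 7.32 nM - 114 uM final, preincubated 10 min.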
row,Compound,"activity change, negative = inhibition"
1,Cc1cccc(N2CCN(C(=O)Cn3nc(Cc4cccnc4)c4ccccc4c3=O)CC2)c1C,inactive: -10.3%
2,CC(C)(C)c1ccc(C(=O)N2CCC(c3nc4ccccc4o3)CC2)cc1,inactive: -4.92%
3,Cc1ccc(Cl)cc1NC(=O)C(C)n1nc(-c2ccccc2)ccc1=O (configuration not stated),inactive: -9.16%
4,COc1ccc(-c2nc(SCC(=O)Nc3ccc4c(c3)OCO4)c(-c3ccc(OC)cc3)[nH]2)cc1,inactive: -7.71%
5,COc1cc(Cl)c(C)cc1NC(=O)CSc1ncc(S(=O)(=O)c2ccc(C(C)(C)C)cc2)c(=O)[nH]1,inactive: 7.68%
6,C=Cc1ccc(CN2C(=O)N(c3cccc(Cl)c3)S(=O)(=O)c3ccccc32)cc1,inactive: -5.39%
7,COc1ccccc1C(=O)NCCn1cc(SCc2ccccc2Cl)c2ccccc21,inactive: -1.5%
8,CC(C)(C)OC(=O)N1CCC(c2c(C(=O)NCCN3CCC(Cc4ccccc4)CC3)cnn2-c2ccccc2)CC1,inactive: -12%
9,CCCCOc1ccc(C(=O)N(Cc2ccc(C(C)C)cc2)C2CCS(=O)(=O)C2)cc1 (configuration not stated),inactive: -7.5%
10,COc1ccc(OCC(=O)NCC(c2ccc(Cl)cc2)N2CCCCC2)cc1 (configuration not stated),inactive: -10.1%
11,CCc1ccccc1NC(=O)CSc1nc(-c2ccccc2OC)nc2c1Cc1c(CO)cnc(C)c1O2,inactive: -7.96%
12,Cc1nc2nc(SCC(=O)NCCc3ccc(Cl)cc3)nn2c(C)c1Cc1ccccc1,inactive: -0.826%
13,CN1CCN(c2nc3c(S(=O)(=O)c4ccc(Br)cc4)nnn3c3ccsc23)CC1,inactive: 6.17%
14,Cc1ccc(N2C(=O)c3[nH]nc(-c4ccc(Cl)cc4)c3C2c2ccc(F)cc2)cc1 (configuration not stated),inactive: -4.01%
15,Cc1c(C)n(C)c2ccc(C(=O)N3CCN(c4ccccc4)CC3)cc12,inactive: 5.96%
16,Cc1ccc(S(=O)(=O)Nc2nc3n(n2)C(c2ccccc2Cl)C=C(c2ccccc2)N3)cc1 (configuration not stated),inactive: -2.79%
17,Clc1ccccc1C(c1ccccc1)(c1ccccc1)n1ccnc1,inactive: -13.3%
18,O=C(C1CCC(Cn2c(=O)c3sccc3n(Cc3cccc(F)c3)c2=O)CC1)N1CCCCC1 (configuration not stated),inactive: -11.8%
19,Cc1c(-c2cccc(NC(=O)Nc3ccc(Cl)cc3)c2)nc2ncccn12,inactive: -4.09%
20,COc1ccc(-n2cc(-c3ccccc3)c3c(NC4CCCC4)ncnc32)cc1,inactive: -4.59%
21,Cc1ccc(Cn2cc(C(=O)c3ccc4c(c3)OCO4)c(=O)c3cc(C)ccc32)cc1,inactive: -3.57%
22,CC1CCN(S(=O)(=O)c2ccc3c(c2)c(=O)c(C(=O)NC(C)c2ccccc2)cn3C)CC1 (configuration not stated),inactive: -3.17%

# Another view of 2 compounds above:
row | Compound | activity change, negative = inhibition
16 | Cc1ccc(S(=O)(=O)Nc2nc3n(n2)C(c2ccccc2Cl)C=C(c2ccccc2)N3)cc1 (configuration not stated) | inactive: -2.79%
21 | Cc1ccc(Cn2cc(C(=O)c3ccc4c(c3)OCO4)c(=O)c3cc(C)ccc32)cc1 | inactive: -3.57%
